Measurements from patent US20210267981A1, “COMPOUNDS FOR THE TREATMENT OF HIV INFECTION AND OTHER DISEASES CAUSED BY RNA VIRUSES” (UNIVERSIDAD CATOLICA DE VALENCIA "SAN VICENTE MARTIR", priority 2018, published 2021).
Some of these results come from one statement about several compounds together.

Molecular target: subdomain IIB of the RRE (IIBh-19ap RNA)
Test: Fluorescence intensity binding to IIBh RNA, with or without competing RNAtCys or LTRd DNA
Set-up: species or system HIV-1
Description: Depending on the absorption spectra of the compounds, these experiments measured association with IIBh-19ap or IIBh-23fl RNA sequences labeled with 2-aminopurine and fluorescein in residues A19 and U23 of the IIB loop, respectively (Prado et al., Biochem Pharmacol 107 (2016) 14-28), and were carried out in a SPECTRA GEMINI XPS plate reader (Molecular Devices, Sunnyvale, USA) or a Victor X5 plate reader (Perkin Elmer). The IIB RNA concentration in these assays was 100 nM, and the specificity of the interactions with respect to RNA and DNA was evaluated by duplicating the experiments in the presence of a 100-fold molar excess (10 μM) of RNAtCys or LTRd DNA duplex. All the fluorescence intensity experiments were performed at least three times for each compound.
The specificity of the interaction was evaluated by duplicating the experiments in the presence of a 100-fold molar excess of RNAtCys. Likewise, specificity with respect to a double-stranded DNA was evaluated by further performing the experiments with a 100-fold molar excess of a DNA duplex with 26 base pairs (identified as LTRd) containing NF-κB and Sp-1 transcription factor-binding sites (Prado et al., Biochem Pharmacol 107 (2016) 14-28). These two factors bind to the LTR promoter of HIV-1 DNA and are essential for virus replication (Jones et al., AnnuRevBiochem 63 (1994) 717-43).

SMILES | Kd [µM]
N=c1c(S(=O)(=O)c2ccc(Cl)cc2)cc2c(=O)n3ccccc3nc2n1C1CCCCC1 [Compound 2b] | 10.8 to 12.1
Fc1nc(N2CCNCC2)c(F)c(Sc2ccc(Cl)cc2)c1F [Compound 2a] | 10.8 to 12.1
